Holding throughout (test): two-hybrid
Test [1] deals with TIRAP (UniProt P58753).
The target of test [2] is T1, TLR1 TIR domain (UniProt Q15399).
T1 sequence: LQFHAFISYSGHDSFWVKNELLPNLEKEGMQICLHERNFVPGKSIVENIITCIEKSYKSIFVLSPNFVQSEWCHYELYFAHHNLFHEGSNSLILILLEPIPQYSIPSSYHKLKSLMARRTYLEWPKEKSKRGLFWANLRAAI

Chains of the proteins cited; added tags and fusions are not shown. Residues count along the entry.
UniProt P58753: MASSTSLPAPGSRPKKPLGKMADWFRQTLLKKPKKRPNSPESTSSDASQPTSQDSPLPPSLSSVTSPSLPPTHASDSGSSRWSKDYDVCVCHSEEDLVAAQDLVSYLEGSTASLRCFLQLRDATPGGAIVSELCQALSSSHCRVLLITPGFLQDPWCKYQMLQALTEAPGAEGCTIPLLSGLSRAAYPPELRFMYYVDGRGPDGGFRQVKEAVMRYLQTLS
UniProt O60603, residues 639-782: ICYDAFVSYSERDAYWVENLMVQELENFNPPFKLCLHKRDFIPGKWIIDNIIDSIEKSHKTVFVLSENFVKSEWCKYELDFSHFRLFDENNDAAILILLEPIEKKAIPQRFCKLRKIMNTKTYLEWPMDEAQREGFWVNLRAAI
UniProt O15455, residues 754-897: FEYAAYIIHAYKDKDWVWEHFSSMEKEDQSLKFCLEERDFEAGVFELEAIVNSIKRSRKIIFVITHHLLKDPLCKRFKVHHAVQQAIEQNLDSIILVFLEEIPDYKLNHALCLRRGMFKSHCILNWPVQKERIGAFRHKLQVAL
UniProt O00206, residues 672-815: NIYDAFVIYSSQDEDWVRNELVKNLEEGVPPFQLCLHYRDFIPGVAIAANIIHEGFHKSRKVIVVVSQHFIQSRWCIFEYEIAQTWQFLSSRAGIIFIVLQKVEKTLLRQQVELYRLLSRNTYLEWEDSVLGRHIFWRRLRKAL
UniProt O60602, residues 691-836: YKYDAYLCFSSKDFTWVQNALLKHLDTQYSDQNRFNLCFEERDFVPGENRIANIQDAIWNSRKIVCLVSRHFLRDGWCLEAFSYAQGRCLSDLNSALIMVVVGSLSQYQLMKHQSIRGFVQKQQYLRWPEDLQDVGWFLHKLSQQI
UniProt Q86XR7: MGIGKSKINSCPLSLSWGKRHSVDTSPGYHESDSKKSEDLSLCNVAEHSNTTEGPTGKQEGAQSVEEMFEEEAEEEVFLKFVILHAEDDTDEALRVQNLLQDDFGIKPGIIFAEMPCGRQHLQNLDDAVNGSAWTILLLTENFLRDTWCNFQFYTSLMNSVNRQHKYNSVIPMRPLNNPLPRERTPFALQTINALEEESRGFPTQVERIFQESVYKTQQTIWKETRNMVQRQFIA
UniProt Q99836: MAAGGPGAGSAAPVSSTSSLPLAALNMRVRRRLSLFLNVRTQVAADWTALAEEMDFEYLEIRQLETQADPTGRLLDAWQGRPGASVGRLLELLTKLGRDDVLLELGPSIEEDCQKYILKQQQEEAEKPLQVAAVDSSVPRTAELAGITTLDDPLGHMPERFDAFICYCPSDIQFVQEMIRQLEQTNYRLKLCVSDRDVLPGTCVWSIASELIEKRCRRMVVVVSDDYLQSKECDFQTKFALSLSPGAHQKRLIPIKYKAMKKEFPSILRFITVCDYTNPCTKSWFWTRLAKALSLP

Test [3] addresses T2, TLR10 TIR domain (UniProt Q9BXR5).
T2 sequence: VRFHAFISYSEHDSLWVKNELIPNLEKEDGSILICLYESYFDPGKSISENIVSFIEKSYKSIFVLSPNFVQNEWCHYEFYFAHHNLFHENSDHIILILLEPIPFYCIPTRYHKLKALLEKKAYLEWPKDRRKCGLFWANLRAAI

The target in test [4] is TLR2 TIR domain (UniProt O60603).
Test [5] deals with TLR3 TIR domain (UniProt O15455).
The target in test [6] is TLR4 TIR domain (UniProt O00206).
Test [7] concerns the target TLR5 TIR domain (UniProt O60602).
Test [8] deals with T3, TLR6 TIR domain (UniProt Q9Y2C9).
T3 sequence: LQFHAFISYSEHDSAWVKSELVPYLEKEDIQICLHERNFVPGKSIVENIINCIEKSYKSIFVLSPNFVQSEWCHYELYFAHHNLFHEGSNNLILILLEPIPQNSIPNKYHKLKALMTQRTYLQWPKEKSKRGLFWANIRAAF

Test [9] has as its target T4, TLR7 TIR domain (UniProt Q9NYK1).
T4 sequence: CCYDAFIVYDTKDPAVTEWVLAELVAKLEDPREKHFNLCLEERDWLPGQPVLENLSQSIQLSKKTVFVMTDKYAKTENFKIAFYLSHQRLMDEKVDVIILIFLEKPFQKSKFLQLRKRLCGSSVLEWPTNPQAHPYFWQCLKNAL

In test [10] the target is T5, TLR8 TIR domain (UniProt Q9NR97).
T5 sequence: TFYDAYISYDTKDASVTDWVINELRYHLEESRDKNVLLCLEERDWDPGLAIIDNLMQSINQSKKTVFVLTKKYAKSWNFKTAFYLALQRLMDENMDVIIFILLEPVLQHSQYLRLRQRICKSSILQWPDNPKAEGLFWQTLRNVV

Test [11] addresses T6, TLR9 TIR domain (UniProt Q9NR96).
T6 sequence: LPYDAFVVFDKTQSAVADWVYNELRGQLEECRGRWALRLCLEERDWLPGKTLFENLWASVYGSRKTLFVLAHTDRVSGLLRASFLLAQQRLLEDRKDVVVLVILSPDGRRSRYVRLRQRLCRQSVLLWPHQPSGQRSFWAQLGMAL

Test [12] has as its target TRAM (UniProt Q86XR7).
For test [13], the target named is human MyD88 (human) (UniProt Q99836).

No constants are given. Whether binding was seen depends on the method and setting. For some of these results: Binding calls can cover weak binding; strength is not graded here.

On to “BtpB (B. melitensis 16 M, BMEI1216) (from UniProt Q8YGE3)”, for which the binding entry in test [1], in test [2], in test [3], in [4], in [5] and in test [6] was “no binding” in each case. The binding entry in [7], in test [8], in test [9], in test [10], in [11] and in test [12] was “no binding” in each case. Moreover, the binding entry in test [13] is “binds”.

For the origin of these results see article PMC3703528.
